# From the supplement of paper PMC10849652
# Sequences of proteins named here, by UniProt entry; tags and fusion partners are left off. A change or cut given only in a name is not applied to a line headed by its entry.
# UniProt Q9Y2W1: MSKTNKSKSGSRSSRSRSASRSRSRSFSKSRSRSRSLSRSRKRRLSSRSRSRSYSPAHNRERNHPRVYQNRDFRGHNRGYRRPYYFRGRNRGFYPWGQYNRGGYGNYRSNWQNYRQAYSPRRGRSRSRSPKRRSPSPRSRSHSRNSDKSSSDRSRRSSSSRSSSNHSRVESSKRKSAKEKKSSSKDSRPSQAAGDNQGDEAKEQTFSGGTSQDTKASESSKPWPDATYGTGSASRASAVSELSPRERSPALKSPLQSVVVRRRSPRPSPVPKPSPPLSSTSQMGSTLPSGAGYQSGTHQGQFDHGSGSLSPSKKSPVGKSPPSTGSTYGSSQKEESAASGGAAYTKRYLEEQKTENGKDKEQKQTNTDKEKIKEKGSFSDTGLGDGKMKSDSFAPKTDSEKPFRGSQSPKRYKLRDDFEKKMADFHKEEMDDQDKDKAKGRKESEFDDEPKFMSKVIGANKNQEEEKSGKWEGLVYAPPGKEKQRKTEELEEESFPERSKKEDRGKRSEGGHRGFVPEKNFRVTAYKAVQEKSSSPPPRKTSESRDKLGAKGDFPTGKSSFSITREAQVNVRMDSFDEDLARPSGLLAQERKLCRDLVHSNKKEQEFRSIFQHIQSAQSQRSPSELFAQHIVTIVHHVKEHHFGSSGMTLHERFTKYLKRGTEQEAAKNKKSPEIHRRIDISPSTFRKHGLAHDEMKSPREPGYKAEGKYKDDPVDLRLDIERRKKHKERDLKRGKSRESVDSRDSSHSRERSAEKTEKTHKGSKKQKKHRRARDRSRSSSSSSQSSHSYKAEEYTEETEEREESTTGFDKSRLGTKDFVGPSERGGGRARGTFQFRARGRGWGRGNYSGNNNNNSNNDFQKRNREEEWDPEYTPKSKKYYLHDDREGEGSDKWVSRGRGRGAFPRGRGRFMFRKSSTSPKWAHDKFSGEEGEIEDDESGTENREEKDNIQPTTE
# UniProt Q6YHU6: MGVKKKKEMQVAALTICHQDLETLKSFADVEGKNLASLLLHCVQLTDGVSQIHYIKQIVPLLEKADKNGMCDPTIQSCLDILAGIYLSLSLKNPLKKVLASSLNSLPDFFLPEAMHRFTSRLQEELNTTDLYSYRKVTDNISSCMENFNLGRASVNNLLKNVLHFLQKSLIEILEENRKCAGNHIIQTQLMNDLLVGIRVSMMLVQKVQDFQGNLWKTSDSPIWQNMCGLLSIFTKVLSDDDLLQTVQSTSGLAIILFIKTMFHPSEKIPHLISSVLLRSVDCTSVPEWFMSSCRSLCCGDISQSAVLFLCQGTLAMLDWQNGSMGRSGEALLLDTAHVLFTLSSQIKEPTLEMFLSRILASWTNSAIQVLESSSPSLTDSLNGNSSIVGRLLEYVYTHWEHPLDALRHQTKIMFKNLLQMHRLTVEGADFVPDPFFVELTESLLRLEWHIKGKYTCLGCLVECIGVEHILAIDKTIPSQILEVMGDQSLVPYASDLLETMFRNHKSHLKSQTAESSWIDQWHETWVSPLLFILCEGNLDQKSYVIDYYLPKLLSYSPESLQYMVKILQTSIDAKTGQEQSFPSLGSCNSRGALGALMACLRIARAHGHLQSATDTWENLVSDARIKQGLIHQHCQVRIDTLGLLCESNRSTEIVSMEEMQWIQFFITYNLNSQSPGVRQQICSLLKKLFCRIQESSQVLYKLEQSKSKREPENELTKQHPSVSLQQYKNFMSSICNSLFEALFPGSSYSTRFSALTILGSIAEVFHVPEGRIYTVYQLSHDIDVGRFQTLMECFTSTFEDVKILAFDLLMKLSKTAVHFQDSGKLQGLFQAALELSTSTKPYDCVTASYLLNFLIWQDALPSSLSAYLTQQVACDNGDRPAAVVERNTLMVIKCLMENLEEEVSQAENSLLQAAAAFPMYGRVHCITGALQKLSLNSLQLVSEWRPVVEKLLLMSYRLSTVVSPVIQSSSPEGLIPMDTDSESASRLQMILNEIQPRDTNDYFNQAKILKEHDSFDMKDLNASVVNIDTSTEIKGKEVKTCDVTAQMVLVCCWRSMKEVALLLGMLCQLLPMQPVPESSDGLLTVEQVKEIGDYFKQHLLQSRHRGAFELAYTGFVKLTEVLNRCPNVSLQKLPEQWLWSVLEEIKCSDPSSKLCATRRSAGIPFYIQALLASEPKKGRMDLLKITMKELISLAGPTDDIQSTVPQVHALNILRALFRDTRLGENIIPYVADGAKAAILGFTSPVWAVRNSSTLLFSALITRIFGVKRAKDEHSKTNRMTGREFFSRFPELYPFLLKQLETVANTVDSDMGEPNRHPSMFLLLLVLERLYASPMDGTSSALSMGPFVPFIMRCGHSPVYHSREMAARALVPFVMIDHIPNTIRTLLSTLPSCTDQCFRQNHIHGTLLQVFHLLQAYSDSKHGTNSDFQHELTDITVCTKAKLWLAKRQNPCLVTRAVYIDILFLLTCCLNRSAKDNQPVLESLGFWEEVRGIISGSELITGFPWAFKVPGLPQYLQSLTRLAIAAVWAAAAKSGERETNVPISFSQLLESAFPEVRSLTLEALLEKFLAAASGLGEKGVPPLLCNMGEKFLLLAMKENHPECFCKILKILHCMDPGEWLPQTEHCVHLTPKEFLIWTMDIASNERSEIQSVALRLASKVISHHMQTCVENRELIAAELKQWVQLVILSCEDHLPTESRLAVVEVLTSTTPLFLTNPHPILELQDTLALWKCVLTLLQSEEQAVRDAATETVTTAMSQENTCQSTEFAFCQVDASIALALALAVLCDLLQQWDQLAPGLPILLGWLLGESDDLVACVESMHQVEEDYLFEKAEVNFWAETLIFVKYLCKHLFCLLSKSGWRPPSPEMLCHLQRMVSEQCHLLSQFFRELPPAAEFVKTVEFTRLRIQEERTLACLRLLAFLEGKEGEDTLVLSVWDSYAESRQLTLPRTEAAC
# UniProt O43615: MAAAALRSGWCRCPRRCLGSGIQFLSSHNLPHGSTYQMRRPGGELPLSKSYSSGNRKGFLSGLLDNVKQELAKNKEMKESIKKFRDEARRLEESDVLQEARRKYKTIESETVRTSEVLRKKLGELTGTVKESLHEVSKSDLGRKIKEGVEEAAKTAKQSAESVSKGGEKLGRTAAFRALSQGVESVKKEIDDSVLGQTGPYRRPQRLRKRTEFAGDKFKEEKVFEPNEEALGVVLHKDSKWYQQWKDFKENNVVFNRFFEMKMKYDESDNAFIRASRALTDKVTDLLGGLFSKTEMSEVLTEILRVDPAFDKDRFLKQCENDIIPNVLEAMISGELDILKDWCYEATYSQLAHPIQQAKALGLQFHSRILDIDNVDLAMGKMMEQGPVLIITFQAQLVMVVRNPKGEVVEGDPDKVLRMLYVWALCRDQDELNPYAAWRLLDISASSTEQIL
# UniProt Q9BSF4: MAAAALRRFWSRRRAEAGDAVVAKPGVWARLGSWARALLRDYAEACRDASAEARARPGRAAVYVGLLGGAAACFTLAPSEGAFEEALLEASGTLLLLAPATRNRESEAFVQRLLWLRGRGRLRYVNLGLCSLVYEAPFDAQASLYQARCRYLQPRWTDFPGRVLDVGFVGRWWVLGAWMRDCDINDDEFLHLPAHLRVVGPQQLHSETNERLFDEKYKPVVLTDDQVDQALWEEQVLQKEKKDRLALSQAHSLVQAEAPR
# UniProt P04183: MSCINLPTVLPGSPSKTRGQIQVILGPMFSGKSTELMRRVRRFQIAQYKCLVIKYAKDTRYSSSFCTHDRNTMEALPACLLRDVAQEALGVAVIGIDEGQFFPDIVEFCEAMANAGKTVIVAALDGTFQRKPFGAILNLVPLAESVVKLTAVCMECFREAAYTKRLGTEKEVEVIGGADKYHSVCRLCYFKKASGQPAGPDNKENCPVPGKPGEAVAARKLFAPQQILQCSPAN
# UniProt Q9BVV7: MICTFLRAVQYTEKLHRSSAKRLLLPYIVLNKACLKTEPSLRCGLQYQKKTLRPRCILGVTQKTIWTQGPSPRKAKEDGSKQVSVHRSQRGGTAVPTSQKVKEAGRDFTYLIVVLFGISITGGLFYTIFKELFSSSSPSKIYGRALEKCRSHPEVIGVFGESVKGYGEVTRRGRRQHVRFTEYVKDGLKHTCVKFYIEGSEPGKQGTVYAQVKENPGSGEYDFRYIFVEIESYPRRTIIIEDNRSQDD
# UniProt Q5JUR7: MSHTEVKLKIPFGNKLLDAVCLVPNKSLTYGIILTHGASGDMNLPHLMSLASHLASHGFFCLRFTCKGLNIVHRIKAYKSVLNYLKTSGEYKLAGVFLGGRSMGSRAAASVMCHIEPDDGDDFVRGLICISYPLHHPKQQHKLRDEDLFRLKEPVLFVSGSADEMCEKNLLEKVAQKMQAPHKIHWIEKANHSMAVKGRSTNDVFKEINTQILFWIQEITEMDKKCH
# UniProt Q9BQ70: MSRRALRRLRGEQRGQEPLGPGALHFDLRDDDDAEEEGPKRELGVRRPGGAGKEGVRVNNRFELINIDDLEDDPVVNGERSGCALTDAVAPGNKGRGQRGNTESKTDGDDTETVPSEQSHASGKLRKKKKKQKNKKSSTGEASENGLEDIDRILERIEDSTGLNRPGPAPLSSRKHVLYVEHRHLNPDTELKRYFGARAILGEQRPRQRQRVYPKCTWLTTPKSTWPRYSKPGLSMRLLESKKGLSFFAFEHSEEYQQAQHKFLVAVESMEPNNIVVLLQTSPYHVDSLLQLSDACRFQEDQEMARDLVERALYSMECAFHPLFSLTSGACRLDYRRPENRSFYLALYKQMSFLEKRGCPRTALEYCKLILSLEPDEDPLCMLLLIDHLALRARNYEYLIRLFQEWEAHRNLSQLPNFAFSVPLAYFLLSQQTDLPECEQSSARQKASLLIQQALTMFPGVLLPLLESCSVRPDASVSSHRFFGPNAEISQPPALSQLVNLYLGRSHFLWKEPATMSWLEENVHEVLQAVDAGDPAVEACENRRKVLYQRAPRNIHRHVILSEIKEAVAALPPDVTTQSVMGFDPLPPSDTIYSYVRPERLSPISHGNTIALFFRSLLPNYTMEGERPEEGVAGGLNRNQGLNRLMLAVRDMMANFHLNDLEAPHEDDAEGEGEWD
# UniProt Q5VWP2: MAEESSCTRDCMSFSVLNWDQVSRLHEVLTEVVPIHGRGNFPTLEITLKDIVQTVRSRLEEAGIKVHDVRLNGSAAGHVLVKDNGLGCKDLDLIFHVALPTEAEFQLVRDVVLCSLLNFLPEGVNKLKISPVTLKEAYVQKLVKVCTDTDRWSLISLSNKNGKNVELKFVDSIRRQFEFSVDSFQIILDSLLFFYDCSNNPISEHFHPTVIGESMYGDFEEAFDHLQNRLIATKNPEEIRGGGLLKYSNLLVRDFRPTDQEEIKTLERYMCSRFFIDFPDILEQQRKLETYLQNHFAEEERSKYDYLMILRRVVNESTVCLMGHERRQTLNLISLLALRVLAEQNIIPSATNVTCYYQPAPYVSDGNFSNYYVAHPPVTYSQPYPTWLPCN
# UniProt Q96CG3: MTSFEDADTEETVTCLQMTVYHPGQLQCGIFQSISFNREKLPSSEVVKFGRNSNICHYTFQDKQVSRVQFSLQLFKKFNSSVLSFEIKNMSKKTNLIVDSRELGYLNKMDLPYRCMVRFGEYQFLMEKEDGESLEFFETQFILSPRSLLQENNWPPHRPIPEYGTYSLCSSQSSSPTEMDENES
# UniProt Q15170: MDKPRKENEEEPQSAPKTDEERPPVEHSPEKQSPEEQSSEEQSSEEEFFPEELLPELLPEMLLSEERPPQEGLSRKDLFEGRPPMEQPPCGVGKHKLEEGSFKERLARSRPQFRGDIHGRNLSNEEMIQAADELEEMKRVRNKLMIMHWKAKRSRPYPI
# UniProt Q13488, whole entry, looked up: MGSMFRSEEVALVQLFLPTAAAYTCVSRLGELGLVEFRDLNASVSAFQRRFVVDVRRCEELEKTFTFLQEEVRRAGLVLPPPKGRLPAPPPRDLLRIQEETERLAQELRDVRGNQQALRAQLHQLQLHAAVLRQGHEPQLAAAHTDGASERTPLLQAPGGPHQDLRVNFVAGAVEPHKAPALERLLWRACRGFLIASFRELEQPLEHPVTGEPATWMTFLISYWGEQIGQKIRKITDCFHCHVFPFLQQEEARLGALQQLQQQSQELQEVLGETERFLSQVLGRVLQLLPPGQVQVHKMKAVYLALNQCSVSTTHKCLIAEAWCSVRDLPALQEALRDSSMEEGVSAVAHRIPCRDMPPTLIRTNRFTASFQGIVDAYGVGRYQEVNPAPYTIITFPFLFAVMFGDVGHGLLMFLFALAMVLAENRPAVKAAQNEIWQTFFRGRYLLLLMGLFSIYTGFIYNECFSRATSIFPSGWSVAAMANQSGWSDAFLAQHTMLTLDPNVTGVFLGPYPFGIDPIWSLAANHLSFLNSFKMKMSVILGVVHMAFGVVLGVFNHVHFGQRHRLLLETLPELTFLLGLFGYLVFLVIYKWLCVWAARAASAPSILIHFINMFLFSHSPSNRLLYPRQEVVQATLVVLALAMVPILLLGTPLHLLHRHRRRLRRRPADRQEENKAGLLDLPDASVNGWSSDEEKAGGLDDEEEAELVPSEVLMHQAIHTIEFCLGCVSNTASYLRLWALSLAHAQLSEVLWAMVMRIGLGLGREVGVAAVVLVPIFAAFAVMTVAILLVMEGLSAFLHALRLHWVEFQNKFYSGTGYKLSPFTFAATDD
# Some of the results follow.
# Compound: COc1cccc2cc(-c3nc([C@H]4CC[C@H](C(=O)O)CC4)n4ncnc(N)c34)[nH]c12
# Test: log2 fold change, soluble protein after heating vs DMSO (PISA); higher = thermal stabilisation; K562 cells, 10 uM, 30 min; active = over 0.2 and 3.5 SD of the protein, either way, in both replicates (recomputed)
# Method in brief: (§1)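 Quantification of soluble protein used TMTpro 16plex LC-MS/MS, with channel sums equalised. Samples were the supernatant after 21,000xg for 90 min of pooled aliquots from K562 cells (2×10^6 cells/mL) treated with 10 μM compound for 30 min, heated for 3 min over 48°C-58°C, and extracted in PBS with 0.5% NP-40 at 4°C. Values, from duplicates, describe thermal stability against control samples on a log2 fold-change scale.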
row,Target,log2 fold change
1,THRAP3 (UniProt Q9Y2W1),inactive: 0.13
2,THADA (UniProt Q6YHU6),inactive: 0.014
3,TCOF1 isoform 6 (UniProt Q13428),inactive: -0.105
4,TIMM44 (UniProt O43615),inactive: 0.017
5,TIMM29 (UniProt Q9BSF4),inactive: 0.073
6,TK1 (UniProt P04183),inactive: 0.073
7,TIMM21 (UniProt Q9BVV7),inactive: 0.01
8,TEX30 (UniProt Q5JUR7),inactive: 0.031
9,"TKT, A0A0B4J1R6",inactive: 0.145
10,TCF25 (UniProt Q9BQ70),inactive: -0.013
11,THAP9 (UniProt Q9H5L6),inactive: 0.011

# Compound: CS(=O)(=O)CCNCc1ccc(-c2ccc3ncnc(Nc4ccc(OCc5cccc(F)c5)c(Cl)c4)c3c2)o1 [lapatinib]
# Test: as above
# Method in brief: as §1
row,Target,log2 fold change
1,TERF2IP (UniProt Q9NYB0),inactive: -0.008
2,TBC1D23 (UniProt Q9NUY8),inactive: -0.053
3,TFAM (UniProt Q00059),inactive: -0.012
4,TGS1 (UniProt Q96RS0),inactive: 0.061
5,TENT5C (UniProt Q5VWP2),inactive: -0.092
6,TIPRL (UniProt O75663),inactive: -0.009
7,TBC1D5 isoform 2 (UniProt Q92609),inactive: -0.062
8,TBC1D20 isoform 3 (UniProt Q96BZ9),inactive: -0.03
9,TGFBI (UniProt Q15582),inactive: 0.018
10,TJP1 (UniProt Q07157),inactive: -0.006
11,TBP (UniProt P20226),inactive: 0.023
12,TFDP1 (UniProt Q14186),inactive: 0.017
13,TBRG4 (UniProt Q969Z0),inactive: -0.051
14,TJP2 isoform 7 (UniProt Q9UDY2),inactive: 0.008
15,TIFA (UniProt Q96CG3),inactive: -0.015
16,THYN1 (UniProt Q9P016),inactive: -0.039

row,Target,log2 fold change
1,TBCD (UniProt Q9BTW9),inactive: -0.024
2,TBK1 (UniProt Q9UHD2),inactive: -0.018
3,TBC1D24 (UniProt Q9ULP9),inactive: 0.032
4,TEX2 isoform 2 (UniProt Q8IWB9),inactive: -0.013
5,TCEAL1 isoform 2 (UniProt Q15170),inactive: 0.051
6,THRAP3 (UniProt Q9Y2W1),inactive: 0.066
7,THADA (UniProt Q6YHU6),inactive: 0.012
8,TIMM44 (UniProt O43615),inactive: -0.073
9,TIMM29 (UniProt Q9BSF4),inactive: 0.014
10,TK1 (UniProt P04183),inactive: -0.009
11,TIMM21 (UniProt Q9BVV7),inactive: -0.008
12,TEX30 (UniProt Q5JUR7),inactive: -0.029
13,"TKT, A0A0B4J1R6",inactive: -0.109
14,TCF25 (UniProt Q9BQ70),inactive: 0.101
15,TCTN3 (UniProt Q6NUS6),inactive: 0.024

# Compound: CS(=O)(=O)N1CCN(Cc2cc3nc(-c4cccc5[nH]ncc45)nc(N4CCOCC4)c3s2)CC1 [pictilisib]
# Test: as above
# Method in brief: as §1
row,Target,log2 fold change
1,TERF2IP (UniProt Q9NYB0),inactive: -0.036
2,TBC1D23 (UniProt Q9NUY8),inactive: -0.067
3,TFAM (UniProt Q00059),inactive: -0.04
4,TENT5C (UniProt Q5VWP2),inactive: 0.168
5,TIPRL (UniProt O75663),inactive: 0.034
6,TFCP2 (UniProt Q12800),inactive: 0.05
7,TBC1D5 isoform 2 (UniProt Q92609),inactive: -0.091
8,TDRD7 (UniProt Q8NHU6),inactive: 0.069
9,TBC1D20 isoform 3 (UniProt Q96BZ9),inactive: -0.073
10,TGFBI (UniProt Q15582),inactive: -0.083
11,TJP1 (UniProt Q07157),inactive: 0.017
12,TFPI (UniProt P10646),inactive: 0.338
13,TFDP1 (UniProt Q14186),inactive: 0.021
14,TBRG4 (UniProt Q969Z0),inactive: -0.036
15,TJP2 isoform 7 (UniProt Q9UDY2),inactive: 0.067
16,TIFA (UniProt Q96CG3),inactive: -0.05

row,Target,log2 fold change
1,THYN1 (UniProt Q9P016),inactive: -0.032
2,TBCD (UniProt Q9BTW9),inactive: 0.04
3,TBK1 (UniProt Q9UHD2),inactive: 0.009
4,TBC1D24 (UniProt Q9ULP9),inactive: -0.082
5,TK2 isoform 6 (UniProt O00142),inactive: 0.127
6,TEX2 isoform 2 (UniProt Q8IWB9),inactive: -0.005
7,TCEAL1 isoform 2 (UniProt Q15170),inactive: 0.013
8,THRAP3 (UniProt Q9Y2W1),inactive: 0.005
9,THADA (UniProt Q6YHU6),inactive: -0.014
10,TIMM44 (UniProt O43615),inactive: -0.041
11,TCIRG1 (UniProt Q13488),inactive: -0.089
12,TIMM29 (UniProt Q9BSF4),inactive: 0.051
13,TK1 (UniProt P04183),inactive: 0.045
14,TIMM21 (UniProt Q9BVV7),inactive: 0.055
15,TEX30 (UniProt Q5JUR7),inactive: 0.057
16,TCF25 (UniProt Q9BQ70),inactive: -0.08
